# According to PubChem BioAssay AID504467 (National Center for Advancing Translational Sciences (NCATS), 2011):
# Out of some 330,000 compounds screened, about 7,700 (2.3%) were called active. Inconclusive results, whose numbers are uncertain, are shown with a selection of clear calls. Calls follow the shape of the dose curve; as a rule, active = well fitted inhibition curve with a large enough effect; inconclusive = small, poorly fitted or top-dose-only effect, or effect the other way; inactive = flat fitted curve, though single readings scatter. A potency beside an inconclusive call is a rough fit, not a confirmed value.
# Assay: qHTS screen for small molecules that inhibit ELG1-dependent DNA repair in human embryonic kidney (HEK293T) cells expressing luciferase-tagged ELG1; also: nearly all actives have a fitted effect of over 55% in size
# Details: HEK293T ELG1-luciferase reporter, luminescence, 16 h, DNA damage induced by 5-fluorouridine; activity change, negative = inhibition: at 46.1 µM (top of the series)
# Procedure, shortened: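 In this reporter screen, reduction of luminescence relative to DMSO vehicle indicated activity. Compounds and 5-fluorouridine were added together to 2,000 cells per well, incubated for 16 hr at 37 °C, then developed with ONE-Glo.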
# % is scaled to controls: 0 for no effect and ±100 for the full control effect; potency is read from the fitted curve at half-maximal effect.
Compound,"activity change, negative = inhibition",Potency
Cc1nn(C)cc1-c1n[nH]c(=S)n1-c1ccc(Cl)cc1,inactive: -8.77%,
O=C(Cn1cc(S(=O)(=O)Cc2ccc([N+](=O)[O-])cc2)c2ccccc21)N1CCOCC1,inactive: -1.15%,
COc1cc(NC(=O)C2CCCN(S(=O)(=O)c3cccc4nsnc34)C2)cc(OC)c1 (stereo not drawn),,active: 23.1 µM
CC1(C)NC(=O)N(CCC(=O)Nc2cc(C(F)(F)F)ccc2Cl)C1=O,,"inconclusive: 4.11 µM [activator, partial curve, poor fit]"
O=C(CN1CCN(S(=O)(=O)c2cc(Cl)ccc2Cl)CC1)c1ccc(O)c(O)c1,,"inconclusive: 29.1 µM [inhibitor, single point]"
Cc1nc2cc(NC(=O)c3ccco3)ccc2n1C,,"inconclusive: 6.51 µM [activator, partial curve]"
O=C(c1cccc(Cl)c1)C1CCCN(Cc2ccc(N3CCNC3=O)cc2)C1 (stereo not drawn),,"inconclusive: 18.3 µM [inhibitor, single point]"
CCCCC1CN2CCc3c([nH]c4ccccc34)C2(C)C1 (stereo not drawn),,"inconclusive: 0.146 µM [activator, full curve]"
O=C(OCn1nnc2ccccc2c1=O)c1ccc2ncsc2c1,,"inconclusive: 14.6 µM [activator, single point]"
Cc1ccc2c(COC(=O)c3cnc(C)cn3)cc(=O)oc2c1,inactive: 7.66%,
CCOC(=O)c1c(S(=O)(=O)NCC(=O)Nc2cccc(C)c2C)c(C)n(C)c1C,inactive: 7.73%,
CSc1ccc(CSCC(=O)N2CCN(S(=O)(=O)c3ccc(C)cc3C)CC2)cc1,,active: 10 µM
O=C(Nc1cccc(Br)c1)c1cc2ccccc2o1,,"inconclusive: 8.2 µM [activator, partial curve]"
COc1ccc(C2NC(=S)NC3=C2CCc2cc(OC)ccc23)cc1 (stereo not drawn),,"inconclusive: 32.6 µM [inhibitor, partial curve, poor fit]"
COc1cccc(CC2(CO)CCN(Cc3cnc(-c4cccc(C)c4)nc3)CC2)c1,,"inconclusive: 8.2 µM [inhibitor, partial curve, poor fit]"
Cc1ccc2nc(-c3ccc(SCC(=O)O)nc3)[nH]c2c1,,"inconclusive: 18.4 µM [activator, single point]"
CCOc1ccc(C(=O)Nc2nnn(CC)n2)cc1,,"inconclusive: 9.2 µM [activator, partial curve]"
COCCCNc1nc2c(c(=O)n(Cc3ccc(Cl)cc3)c(=O)n2C)n1C,,"inconclusive: 20.6 µM [inhibitor, single point]"
CC1=C(C#N)C(=O)NC(=O)/C1=C\c1ccc(-c2ccc(C)cc2[N+](=O)[O-])o1,inactive: -0.406%,
COc1ccc(CNc2nc3ccc(C)cc3s2)c(OC)c1OC,,"inconclusive: 29.1 µM [inhibitor, single point]"
COc1ccc(-c2cc(C(=O)Nc3cc(C)on3)no2)cc1,,"inconclusive: 18.3 µM [activator, single point]"
CCC(=O)c1ccc(OCC(O)CNC2CCCC2)cc1 (stereo not drawn),,"inconclusive: 29.1 µM [activator, single point]"
COc1ccc(Nc2ccc(Cl)nn2)cc1,,"inconclusive: 16.4 µM [activator, partial curve, poor fit]"
COCC1CCN(Cc2cn(Cc3ccccc3)nc2-c2cc3ccccc3o2)CC1,,"inconclusive: 14.6 µM [inhibitor, partial curve, poor fit]"
CC(C)S(=O)(=O)c1csc(NC(=O)Nc2cc(Cl)ccc2Cl)c1Cl,,active: 20.6 µM

Compound,"activity change, negative = inhibition",Potency
CC1CN(C(=O)C2CCCC2)C(C)CN1C(=O)C1CCCC1 (stereo not drawn),inactive: 13.6%,
COC(=O)c1ccc(COC(=O)C(NC(=O)Cc2ccccc2)C(C)C)cc1 (stereo not drawn),inactive: -1.56%,
CCOC(=O)NNC(=O)CCn1c2c(c3ccccc31)CCCC2,,active: 18.3 µM
COc1ccc(/C=C/c2nc(S(=O)(=O)c3ccccc3)c(N(C)C)o2)cc1OC,,"inconclusive: 25.9 µM [inhibitor, partial curve, poor fit]"
Cc1ccc(C2(C)NC(=O)N(CC(=O)NC(=O)NC(C)C)C2=O)cc1 (stereo not drawn),,"inconclusive: 0.184 µM [inhibitor, single point]"
COC(=O)c1ccc2c(c1)C(C)(C)C(/C=C/c1ccccc1O)=[N+]2C,,active: 6.51 µM
COc1ccc2cc3c(N)nn(C(=O)c4ccccc4[N+](=O)[O-])c3nc2c1,,active: 2.31 µM
CCOC(=O)c1sc2ncn(CC(=O)Nc3cc(C)on3)c(=O)c2c1C,inactive: 9.72%,
Cc1cccc(NC(=O)N2C3CCCC2CC(NC(=O)C(C)(C)C)C3)c1 (stereo not drawn),,"inconclusive: 0.206 µM [inhibitor, single point]"
Cc1ccc(CNC(=O)COc2ccc(C(=O)c3ccc(F)cc3)cc2)cc1,inactive: 22%,
N#C/C(=C\c1cccnc1)C(=O)Nc1cccc(Cl)c1,inactive: -7.39%,
S=c1[nH]c2ccc(Cl)cc2s1,inactive: 16.5%,
Cc1cc(C)c(C(=O)N2CCCC(N3CCN(c4cccc(C(F)(F)F)c4)CC3)C2)o1 (stereo not drawn),,"inconclusive: 25.9 µM [inhibitor, partial curve, poor fit]"
CC(=O)Nc1cccc(OCC(=O)Nc2cccc(S(=O)(=O)N3CCCC3)c2)c1,,"inconclusive: 14.6 µM [inhibitor, partial curve, poor fit]"
Cc1nc(SCC(=O)c2c[nH]c3ccccc23)n[nH]1,,"inconclusive: 32.6 µM [activator, partial curve, poor fit]"
Cc1ccnc(NC(=O)CSc2ccccn2)c1,inactive: 0%,
Nc1ncnc2c1ncn2[C@@H]1O[C@H](CNC(=O)[C@@H](N)Cc2ccc(C(F)(F)F)cc2)[C@@H](O)[C@H]1O,,"inconclusive: 32.6 µM [activator, partial curve, poor fit]"
CSC(=Nc1ccc(Cl)cc1)N[n+]1ccccc1,,"inconclusive: 7.31 µM [inhibitor, partial curve, poor fit]"
CC1CC(C)CN(C(=O)C2CCN(S(=O)(=O)N3CCC4(CC3)OCCO4)CC2)C1 (stereo not drawn),inactive: 9.43%,
Cc1cccc(C2=NC(C(F)(F)F)(C(F)(F)F)c3c(n(-c4ccc(F)cc4)c(=O)[nH]c3=O)N2)c1,,active: 9.2 µM
O=C(Cc1cccc2ccccc12)Nc1ccc(-c2cc3ccccc3oc2=O)cc1,,"inconclusive: 2.59 µM [inhibitor, full curve]"
CC(=O)Nc1ccc(NS(=O)(=O)c2cccc3ccccc23)cc1,inactive: -11%,
Cc1cc(C)c(C(=O)c2ccc(C(=O)NC(C)(C)C)cc2)c(C)c1,inactive: 1.18%,
Brc1ccc2ncnc(NCc3ccccc3)c2c1,,active: 4.11 µM
CCOC(=O)C1(Cc2ccc(Cl)cc2)CCN(C(=O)c2cscn2)CC1,inactive: 9.52%,

# Molecules listed so far that have a cyano group:
Compound,"activity change, negative = inhibition",Potency
CC1=C(C#N)C(=O)NC(=O)/C1=C\c1ccc(-c2ccc(C)cc2[N+](=O)[O-])o1,inactive: -0.406%,
N#C/C(=C\c1cccnc1)C(=O)Nc1cccc(Cl)c1,inactive: -7.39%,

# The list goes on.

Compound,"activity change, negative = inhibition",Potency
COCc1cc(N2CCOCC2)nc(SCc2ccc(Cl)cc2)n1,,"inconclusive: 0.082 µM [inhibitor, full curve, poor fit]"
O=C(CSc1ccc(Cl)cc1)N1CCCC1,,"inconclusive: 20.6 µM [activator, partial curve]"
COc1cccc(CN(C)C(=O)c2cc(-c3ccc(F)cc3)nc3ccccc23)c1,,"inconclusive: 13 µM [inhibitor, partial curve]"
O=C1CC(/C=C/c2ccncc2)=Nc2ccccc2N1,,active: 18.3 µM
COc1cc(N)c(Br)cc1C(=O)O,,"inconclusive: 0.231 µM [inhibitor, single point]"
CC(=O)Nc1ccc(-c2nc3c(C)cccc3[nH]2)cc1,,"inconclusive: 3.55 µM [activator, partial curve]"
CCOc1ccc(NS(=O)(=O)c2c(C)nc3sccn3c2=O)cc1,inactive: 0.684%,
Cc1nn(-c2ccccc2)c(C)c1NC(=O)COC(=O)c1ccc(O)cc1O,,"inconclusive: 23.1 µM [inhibitor, single point]"
COc1c(O)cc(O)c2c(=O)cc(-c3ccccc3)oc12,inactive: 11.9%,
CCn1c2ccccc2c2cc(/C=N/NC(=O)c3cccc(C)c3)ccc21,,"inconclusive: 5.17 µM [inhibitor, single point]"
O=S(=O)(Cc1nnnn1-c1ccccc1)c1ccc(F)cc1,inactive: 5.6%,
O=C(c1ccc2nccnc2c1)N1CCCC(N2CCN(c3ccc(F)cc3)CC2)C1 (stereo not drawn),inactive: -17.6%,
Cc1ccc(CNC(=O)c2ccc3c(=O)n(CCCN4CCCC4=O)c(=S)[nH]c3c2)cc1,,"inconclusive: 20.6 µM [inhibitor, single point]"
Cc1ccccc1C(=O)N1CCC(C(=O)Nc2cccc(S(=O)(=O)N3CCCCC3)c2)CC1,inactive: -28%,
O=C(CSc1ccc(Cl)cc1)Nc1ccc(NC(=O)c2ccco2)cc1,,"inconclusive: 14.6 µM [activator, partial curve, poor fit]"
O=C(NCCOc1nc(N2CCOCC2)nc(N2CCOCC2)n1)Nc1ccccc1,,"inconclusive: 35.5 µM [inhibitor, single point]"
O=C(Nc1cccc(S(=O)(=O)N2CCCCC2)c1)c1ccc(S(=O)(=O)C(F)F)cc1,,active: 20.6 µM
C/C(N)=C(/C#N)C(=O)CSc1nc2scc(-c3ccccc3)c2c(=O)n1C,,"inconclusive: 8.2 µM [inhibitor, partial curve]"
O=C(COCC(=O)N/N=C/c1ccccc1F)N/N=C/c1ccccc1F,inactive: 10.1%,
CCOc1ccc(S(=O)(=O)NCCC(=O)NCc2ccc(OC)c(OC)c2)cc1,inactive: -7.21%,
COc1ccc(N2CCN(S(=O)(=O)CCNC(=O)COc3ccccc3OC)CC2)cc1,,"inconclusive: 11.6 µM [inhibitor, partial curve, poor fit]"
O=C1CCCN1CCCNc1ncccc1[N+](=O)[O-],inactive: 1.36%,
COc1cccc(CNC(=O)C2CCCN2S(=O)(=O)c2ccc3c(c2)C(C)(C)C(=O)N3C)c1 (stereo not drawn),inactive: 1.07%,
